T/C and survivor count data for 15 molecules are collected here from PubChem BioAssay AID330 (DTP/NCI, 2004).

The list shows only some results of the screen, not a fair sample: it is rich in T/C values a quarter to a half above the control, in often repeated tests (any T/C) and in doses without a T/C. Further doses and runs are listed elsewhere. T/C is the treated group as % of the vehicle group. Some doses have a count of surviving animals in place of a T/C: the source files T/C as zero there, which appears to mark a toxic dose or a test without result, not a measured value. Some survivor counts are full or nearly so, which does not show that the dose was tolerated: survival well below the control is almost never listed, so the zero probably covers shortened survival too. Survivors were counted at the toxicity check, usually on the fifth day, unless a day is given; later deaths do not show. Schedules are NCI's codes, taken here to give the interval after Q, in days (D) or hours (H), and the number of doses after X. Some entries hold several experiments; their values stand side by side, smallest first. For survival time, the PubChem record calls one and a half times the control and up active, and a quarter to a half above the control has no call in these data; cut-offs in other NCI protocols can differ. Some T/C values are followed by the survivors on the day toxicity was checked, most often the fifth; where none is given, no animal had died by that day. Counts like (3×) give the number of equal values in this list.

The subject of this assay is P388 leukemia ip, CD2F1 mice, survival T/C. The experiment in a line: NCI In Vivo Anticancer Drug Screen. Data for tumor model P388 Leukemia (intraperitoneal) in CD2F1 (CDF1) mice. To be noted: T/C endpoint: median survival time, higher T/C = longer survival.
Setting [1] is: dose: 25.0 mg/kg/injection, schedule: Q01DX009 (ip), vehicle: saline.
Setting [2] is: dose: 100.0 mg/kg/injection, schedule: Q01DX009 (ip), vehicle: other.
[3] abbreviates: dose: 100.0 mg/kg/injection, schedule: Q04DX003 (ip), vehicle: distilled water + Tween-80.
Where [4] appears, read: dose: 200.0 mg/kg/injection, schedule: Q01DX009 (ip), vehicle: saline.
[5] abbreviates: dose: 200.0 mg/kg/injection, schedule: Q04DX003 (ip), vehicle: distilled water + Tween-80.
Where [6] appears, read: dose: 200.0 mg/kg/injection, schedule: Q04DX003 (ip), vehicle: water.
Where [7] appears, read: dose: 200.0 mg/kg/injection, schedule: Q01DX009 (ip), vehicle: Klucel (hydroxypropylcellulose) (HPC).
Where [8] appears, read: dose: 100.0 mg/kg/injection, schedule: Q01DX005 (ip), vehicle: Klucel (hydroxypropylcellulose) (HPC).
The mark [9] stands for this setting: dose: 200.0 mg/kg/injection, schedule: Q01DX005 (ip), vehicle: Klucel (hydroxypropylcellulose) (HPC).
Where [10] appears, read: dose: 50.0 mg/kg/injection, schedule: Q01DX005 (ip), vehicle: Klucel (hydroxypropylcellulose) (HPC).
Setting [11] is: dose: 50.0 mg/kg/injection, schedule: Q01DX009 (ip), vehicle: saline with Tween-80.

Take `COc1cc2cc3c4cc(OC)c(OC)cc4cc[n+]3c(C)c2cc1OC` (tested in a mixture with another compound): the T/C by setting is: (dose: 12.5 mg/kg/injection, schedule: Q01DX009 (ip), vehicle: other) 131, 139, 141, 146, 149, 150 [5 of 6 alive], 151 % of control [5 of 6 alive]; (dose: 12.5 mg/kg/injection, schedule: Q01DX009 (ip), vehicle: water) 148 % of control; (dose: 12.5 mg/kg/injection, schedule: Q04DX003 (ip), vehicle: distilled water + Tween-80) 118, 122, 122 [5 of 6 alive], 125, 126, 130, 131, 132 (2×), 134 (2×), 135, 136, 140, 141 % of control; (dose: 12.5 mg/kg/injection, schedule: Q04DX003 (ip), vehicle: water) 127, 136, 138 % of control; (dose: 25.0 mg/kg/injection, schedule: Q01DX009 (ip), vehicle: other) 123 [5 of 6 alive], 131, 144, 150, 152, 159, 168 % of control; under setting [1], 144 % of control. Further, the T/C by setting is: (dose: 25.0 mg/kg/injection, schedule: Q04DX003 (ip), vehicle: distilled water + Tween-80) 127, 130, 133, 138, 139, 140, 141 (2×), 142, 144, 145 (2×), 146, 147, 156 % of control; (dose: 25.0 mg/kg/injection, schedule: Q04DX003 (ip), vehicle: water) 135, 145, 147 % of control; (dose: 50.0 mg/kg/injection, schedule: Q01DX009 (ip), vehicle: other) 155, 160, 169, 170, 171, 197, 200 % of control; (dose: 50.0 mg/kg/injection, schedule: Q04DX003 (ip), vehicle: distilled water + Tween-80) 136 [5 of 6 alive], 140, 141, 144 (2×), 145, 146 [5 of 6 alive], 152, 153, 158, 161, 165, 166, 172, 179 % of control; (dose: 50.0 mg/kg/injection, schedule: Q04DX003 (ip), vehicle: saline) 141 % of control; (dose: 50.0 mg/kg/injection, schedule: Q04DX003 (ip), vehicle: water) 142 % of control. In addition, the T/C is, setting by setting: (dose: 64.0 mg/kg/injection, schedule: Q01DX009 (ip), vehicle: water) 128 % of control; (dose: 72.0 mg/kg/injection, schedule: Q04DX003 (ip), vehicle: water) 129 % of control; under setting [2], 91, 136, 180, 188, 196 % of control; under setting [3], 142, 150 (2×), 152, 152 [5 of 6 alive], 155, 163, 163 [5 of 6 alive], 167 (2×), 168, 173, 180, 198 % of control; (dose: 100.0 mg/kg/injection, schedule: Q04DX003 (ip), vehicle: saline with Tween-80) 145 % of control; (dose: 120.0 mg/kg/injection, schedule: Q04DX003 (ip), vehicle: water) 140 % of control [7 of 8 alive]. Also, the T/C was 88, 92, 103 [5 of 6 alive], 106 [5 of 6 alive], 118, 153 [5 of 6 alive], 163 [5 of 6 alive], 169, 170, 172, 190, 215 % of control under setting [5]; 101 and 121 % of control under setting [6]. For the same molecule, the survivor count is 6 of 6 (dose: 50.0 mg/kg/injection, schedule: Q01DX009 (ip), vehicle: water); 5 of 6 and 6 of 6 under setting [2]; 4 of 6 and 5 of 6 (dose: 100.0 mg/kg/injection, schedule: Q01DX009 (ip), vehicle: water); 3 of 6 under setting [3]; 0 of 6 (dose: 150.0 mg/kg/injection, schedule: Q01DX009 (ip), vehicle: saline); 2 of 6, 4 of 6, 5 of 6, 6 of 6 (dose: 200.0 mg/kg/injection, schedule: Q01DX009 (ip), vehicle: other). Further, the survivor count was 0 of 6 under setting [4]; 2 of 6, 4 of 6, 5 of 6 (dose: 200.0 mg/kg/injection, schedule: Q01DX009 (ip), vehicle: water); 2 of 6 and 6 of 6 under setting [5]; 7 of 8 and 6 of 6 under setting [6]; 1 of 6 (dose: 400.0 mg/kg/injection, schedule: Q04DX003 (ip), vehicle: saline with Tween-80); 0 of 6 (dose: 400.0 mg/kg/injection, schedule: Q04DX003 (ip), vehicle: saline). Moreover, for the setting “dose: 800.0 mg/kg/injection, schedule: Q04DX003 (ip), vehicle: saline with Tween-80”, the survivor count is recorded as 1 of 6.

On to `S=C(Nc1ccccc1)Nc1ncccn1`, for which the survivor count under setting [7] is on record as 6 of 6.

With `Cn1c2ncccc2c(=O)c2c(O)cc3c(c21)C=CC(C)(C)O3`, the survivor count under setting [8] is 2 of 6 and the survivor count under setting [9] is reported as 0 of 6.

`CN(NC(=O)CC(=O)NN(C)C(=S)c1ccccc1)C(=S)c1ccccc1`: the survivor count (dose: 100.0 mg/kg/injection, schedule: Q01DX009 (ip), vehicle: gum acacia) is given as 6 of 6.

Turning to `CN1C2C=CC(=O)C1C1C(=O)N(c3ccccc3)C(=O)C12` (stereo unspecified), under “dose: 70.0 mg/kg/injection, schedule: Q01DX005 (ip), vehicle: Klucel (hydroxypropylcellulose) (HPC)”, the T/C is 132 % of control. In addition, under “dose: 140.0 mg/kg/injection, schedule: Q01DX005 (ip), vehicle: Klucel (hydroxypropylcellulose) (HPC)”, the survivor count was 5 of 6.

For `CC(/C=N\NC(=S)SCc1ccccc1)=N/N=C(N)N`, under setting [4], the survivor count is listed as 4 of 6.

Turning to `O=C(C[N+](=O)[O-])c1ccc(Cl)cc1`, under “dose: 200.0 mg/kg/injection, schedule: Q01DX009 (ip), vehicle: saline with Tween-80”, the survivor count is recorded as 1 of 6.

For the molecule `O=C(CCl)NC(Cc1cccc(F)c1)C(=O)O` (stereo unspecified), the survivor count is, setting by setting: (dose: 12.5 mg/kg/injection, schedule: Q01DX009 (ip), vehicle: saline) 0 of 6; under setting [1], 0 of 6; (dose: 50.0 mg/kg/injection, schedule: Q01DX009 (ip), vehicle: saline) 0 of 6; (dose: 100.0 mg/kg/injection, schedule: Q01DX009 (ip), vehicle: saline) 0 of 6; under setting [4], 0 of 6.

`C=CC1(C)CCOC(=O)C1` (stereo unspecified): the survivor count (dose: 240.0 mg/kg/injection, schedule: Q01DX005 (ip), vehicle: saline with Tween-80) is reported as 1 of 6.

For `Cc1ccc(-c2cc(=O)c3cccc(CC(=O)O)c3o2)cc1`, the T/C reads like this: under setting [10], 130 % of control; under setting [9], 138 % of control. For the same molecule, under setting [8], the survivor count is given as 6 of 6.

Turning to `CN1CCN(C(=O)/C=C/C(=O)c2ccccc2)CC1`, the T/C runs as follows: (dose: 60.0 mg/kg/injection, schedule: Q01DX005 (ip), vehicle: Klucel (hydroxypropylcellulose) (HPC)) 127 % of control; (dose: 120.0 mg/kg/injection, schedule: Q01DX005 (ip), vehicle: Klucel (hydroxypropylcellulose) (HPC)) 134 % of control. The survivor count was 1 of 6 and 2 of 6 (dose: 120.0 mg/kg/injection, schedule: Q01DX005 (ip), vehicle: saline); 0 of 6 (dose: 240.0 mg/kg/injection, schedule: Q01DX005 (ip), vehicle: saline).

On to `CN(C)c1ccc2c(SCC(=O)OCC(=O)[C@@]3(O)CC[C@H]4[C@@H]5CCC6=CC(=O)C=C[C@]6(C)[C@H]5C(=O)C[C@@]43C)c3ccc(N(C)C)cc3nc2c1`, for which the T/C is 125 and 126 % of control under setting [10]; 126 and 135 % of control under setting [8]; 145 % of control under setting [9]. For the same molecule, the survivor count under setting [9] is on record as 3 of 6.

For `Cn1cc(Cl)n(C)c(=O)c1=O`, the survivor count was 0 of 6 (dose: 100.0 mg/kg/injection, schedule: Q01DX001 (ip), vehicle: saline with Tween-80); 0 of 6 (dose: 200.0 mg/kg/injection, schedule: Q01DX001 (ip), vehicle: saline with Tween-80); 0 of 6 (dose: 400.0 mg/kg/injection, schedule: Q01DX001 (ip), vehicle: saline with Tween-80).

With `Cc1ccc(C[n+]2ccc3c([N+](=O)[O-])cccc3c2)cc1`, the T/C is 137 % of control (dose: 12.5 mg/kg/injection, schedule: Q01DX009 (ip), vehicle: saline with Tween-80); 127 % of control (dose: 25.0 mg/kg/injection, schedule: Q01DX009 (ip), vehicle: saline with Tween-80); 137 % of control under setting [11]. Further, under setting [11], the survivor count was 5 of 6.

Regarding `O=C(CCl)Nc1nc(=O)[nH]s1`, the survivor count under setting [7] is reported as 0 of 6.
